From patent publication US20200024341A1
These are yes or no findings as the source states them, for the method shown. In cells and extracts the contact can be indirect. Some binding calls cover weakened binding; strength is not graded here.

Amino acid sequences for entries named in this document (tags omitted). A change or cut given only in a name is not applied to a line headed by its entry.
UniProt P07478: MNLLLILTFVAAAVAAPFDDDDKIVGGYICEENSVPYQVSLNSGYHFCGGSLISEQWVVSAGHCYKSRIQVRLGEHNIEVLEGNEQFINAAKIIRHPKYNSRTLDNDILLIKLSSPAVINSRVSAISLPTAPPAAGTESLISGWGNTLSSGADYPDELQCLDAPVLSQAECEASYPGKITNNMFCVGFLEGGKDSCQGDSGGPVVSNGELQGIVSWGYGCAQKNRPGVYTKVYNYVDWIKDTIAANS

Tests used:
[1] = target: Protease, serine 2 (PRSS2) (Homo sapiens (Human)) (UniProt P07478); assay: co-immunoprecipitation
prosaposin = target: T1, prosaposin (UniProt P07602); assay: co-immunoprecipitation
T1 sequence (looked up): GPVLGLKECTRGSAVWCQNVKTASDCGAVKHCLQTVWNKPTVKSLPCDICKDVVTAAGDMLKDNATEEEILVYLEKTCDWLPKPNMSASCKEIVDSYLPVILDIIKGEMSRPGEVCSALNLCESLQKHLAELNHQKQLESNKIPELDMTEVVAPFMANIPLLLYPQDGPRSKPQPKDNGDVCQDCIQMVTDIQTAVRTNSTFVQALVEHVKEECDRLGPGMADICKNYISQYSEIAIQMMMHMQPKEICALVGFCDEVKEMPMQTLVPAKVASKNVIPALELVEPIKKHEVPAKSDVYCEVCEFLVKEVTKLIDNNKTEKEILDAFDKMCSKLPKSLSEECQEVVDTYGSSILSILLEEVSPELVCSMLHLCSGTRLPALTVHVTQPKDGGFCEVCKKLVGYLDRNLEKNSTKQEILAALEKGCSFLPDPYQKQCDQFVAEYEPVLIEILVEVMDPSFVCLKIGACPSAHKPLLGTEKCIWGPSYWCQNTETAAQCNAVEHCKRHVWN

Binder: YGTCSQLCTNTDGSFICGCVEGYLL [Peptide 12 (amino acids 140-164 of LRP1)]
- binding [1]: binds
- binding (prosaposin): binds

Binder: FICGCVEGYLLQPDNRSCKAKN [Peptide 13 (amino acids 151-172 of LRP1)]
- binding [1]: binds
- binding (prosaposin): binds
